PubChem BioAssay AID1259254 | NCATS, 2017
The whole screen tested about 59,000 reagents; below is a random part of them. About 1,550 of them (2.6%) were called active. 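G2 share is only a proxy for re-replication; each gene was hit by three separate siRNAs, and active genes were retested.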 A number with no mark means an inactive call. Further read-outs or replicates are left out here. Reagent sequences are not shown. The record does not give: the amount of reagent.

- Screen: 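Gene knock-downs that lead to re-replication, shown by excess G2 DNA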 (primary screen)
- System: human HCT116 colorectal cancer cells
- Reagent: single siRNA against human genes
- Timing: 3 days
- Detection: 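Imaged Hoechst DNA stain sorts each cell into a cycle phase by DNA amount; per plate, G2 fraction set to 0% for non-targeting and 100% for GMNN siRNA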
- Reading the numbers: G2 robust z-score and G2 cells, % of GMNN control: higher = more G2 cells, more excess DNA replication
- Call rule: 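Active siRNAs have a G2 robust z of 5 or more median absolute deviations over the median, which in these data means about 38% or higher of GMNN control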

TMEM140 [SID160743426]: G2 robust z-score = 1.07; G2 cells, % of GMNN control = 10.5
TMEM140 [SID160743427]: G2 robust z-score = -0.757; G2 cells, % of GMNN control = -2.36
TMEM140 [SID160743428]: G2 robust z-score = 0.721; G2 cells, % of GMNN control = 8.04
RPS29 [SID160716215]: G2 robust z-score = 5; G2 cells, % of GMNN control = 38.1
RPS29 [SID160716216]: G2 robust z-score = 2.52; G2 cells, % of GMNN control = 20.7
RPS29 [SID160724052]: G2 robust z-score = 1.31; G2 cells, % of GMNN control = 12.2
ITGA1 [SID160775951]: G2 robust z-score = -0.621; G2 cells, % of GMNN control = -1.4
ITGA1 [SID160775952]: G2 robust z-score = -0.809; G2 cells, % of GMNN control = -2.72
ITGA1 [SID160775953]: G2 robust z-score = 0.0246; G2 cells, % of GMNN control = 3.14
OAZ2 [SID160778333]: G2 robust z-score = -0.00843; G2 cells, % of GMNN control = 2.91
OAZ2 [SID160778334]: G2 robust z-score = -0.313; G2 cells, % of GMNN control = 0.764
OAZ2 [SID160778335]: G2 robust z-score = 1.91; G2 cells, % of GMNN control = 16.4
PRICKLE2 [SID160760196]: G2 robust z-score = 1.43; G2 cells, % of GMNN control = 13
PRICKLE2 [SID160760197]: G2 robust z-score = -0.11; G2 cells, % of GMNN control = 2.19
PRICKLE2 [SID160760198]: G2 robust z-score = 1.28; G2 cells, % of GMNN control = 12
LRRC37A4P [SID160726260]: G2 robust z-score = 0.823; G2 cells, % of GMNN control = 8.76
LRRC37A4P [SID160726261]: G2 robust z-score = -0.636; G2 cells, % of GMNN control = -1.51
LRRC37A4P [SID160770712]: G2 robust z-score = 1; G2 cells, % of GMNN control = 10
RPSA [SID160723904]: G2 robust z-score = 1.05; G2 cells, % of GMNN control = 10.3
RPSA [SID160776523]: G2 robust z-score = 2.32; G2 cells, % of GMNN control = 19.3
RPSA [SID160776525]: G2 robust z-score = 0.104; G2 cells, % of GMNN control = 3.7
ACOT7 [SID160730737]: G2 robust z-score = 0.522; G2 cells, % of GMNN control = 6.64
ACOT7 [SID160730745]: G2 robust z-score = 1.46; G2 cells, % of GMNN control = 13.2
ACOT7 [SID160730752]: G2 robust z-score = 0.686; G2 cells, % of GMNN control = 7.8

Taken from above:
TMEM140 [SID160743426], G2 robust z-score: 1.07
Value of OAZ2 [SID160778335] under “G2 cells, % of GMNN control”: 16.4
ACOT7 [SID160730752], G2 robust z-score = 0.686
